Results published in the supplement of paper PMC10849652.
The list shows a part of the results.

Protein sequences, listed by entry. Tags and fused reporters are not part of them. Lines headed by an entry give the natural chain unless they say otherwise; changes in a name come on top.
UniProt O60921: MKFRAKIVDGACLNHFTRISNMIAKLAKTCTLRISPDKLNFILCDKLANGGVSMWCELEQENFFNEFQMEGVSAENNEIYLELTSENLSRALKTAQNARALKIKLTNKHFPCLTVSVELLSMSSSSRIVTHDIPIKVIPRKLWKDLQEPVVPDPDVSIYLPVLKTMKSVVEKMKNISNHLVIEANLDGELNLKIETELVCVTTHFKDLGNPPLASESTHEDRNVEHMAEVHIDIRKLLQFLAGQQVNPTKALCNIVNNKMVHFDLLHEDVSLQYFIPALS
UniProt Q9H6K1: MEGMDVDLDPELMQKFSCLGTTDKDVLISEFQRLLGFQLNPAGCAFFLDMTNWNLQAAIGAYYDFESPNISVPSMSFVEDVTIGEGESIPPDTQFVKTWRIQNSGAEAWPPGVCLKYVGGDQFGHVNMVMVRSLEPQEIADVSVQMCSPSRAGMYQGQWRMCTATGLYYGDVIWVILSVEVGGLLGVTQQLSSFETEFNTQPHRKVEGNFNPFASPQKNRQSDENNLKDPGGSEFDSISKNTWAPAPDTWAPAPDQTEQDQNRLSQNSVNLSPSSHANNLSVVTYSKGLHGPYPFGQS
UniProt P48735: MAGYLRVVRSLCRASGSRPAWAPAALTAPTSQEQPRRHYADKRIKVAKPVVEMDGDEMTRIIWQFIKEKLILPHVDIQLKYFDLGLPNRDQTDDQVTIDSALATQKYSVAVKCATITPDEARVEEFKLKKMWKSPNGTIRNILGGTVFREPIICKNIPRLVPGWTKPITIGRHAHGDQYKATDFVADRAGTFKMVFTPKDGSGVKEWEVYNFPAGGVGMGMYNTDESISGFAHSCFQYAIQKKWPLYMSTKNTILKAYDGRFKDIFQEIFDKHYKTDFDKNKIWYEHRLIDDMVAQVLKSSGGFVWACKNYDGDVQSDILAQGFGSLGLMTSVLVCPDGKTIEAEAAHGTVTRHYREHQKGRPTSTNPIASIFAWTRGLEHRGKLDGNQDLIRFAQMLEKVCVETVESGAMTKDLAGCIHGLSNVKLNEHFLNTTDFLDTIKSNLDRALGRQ
UniProt Q9UMF0: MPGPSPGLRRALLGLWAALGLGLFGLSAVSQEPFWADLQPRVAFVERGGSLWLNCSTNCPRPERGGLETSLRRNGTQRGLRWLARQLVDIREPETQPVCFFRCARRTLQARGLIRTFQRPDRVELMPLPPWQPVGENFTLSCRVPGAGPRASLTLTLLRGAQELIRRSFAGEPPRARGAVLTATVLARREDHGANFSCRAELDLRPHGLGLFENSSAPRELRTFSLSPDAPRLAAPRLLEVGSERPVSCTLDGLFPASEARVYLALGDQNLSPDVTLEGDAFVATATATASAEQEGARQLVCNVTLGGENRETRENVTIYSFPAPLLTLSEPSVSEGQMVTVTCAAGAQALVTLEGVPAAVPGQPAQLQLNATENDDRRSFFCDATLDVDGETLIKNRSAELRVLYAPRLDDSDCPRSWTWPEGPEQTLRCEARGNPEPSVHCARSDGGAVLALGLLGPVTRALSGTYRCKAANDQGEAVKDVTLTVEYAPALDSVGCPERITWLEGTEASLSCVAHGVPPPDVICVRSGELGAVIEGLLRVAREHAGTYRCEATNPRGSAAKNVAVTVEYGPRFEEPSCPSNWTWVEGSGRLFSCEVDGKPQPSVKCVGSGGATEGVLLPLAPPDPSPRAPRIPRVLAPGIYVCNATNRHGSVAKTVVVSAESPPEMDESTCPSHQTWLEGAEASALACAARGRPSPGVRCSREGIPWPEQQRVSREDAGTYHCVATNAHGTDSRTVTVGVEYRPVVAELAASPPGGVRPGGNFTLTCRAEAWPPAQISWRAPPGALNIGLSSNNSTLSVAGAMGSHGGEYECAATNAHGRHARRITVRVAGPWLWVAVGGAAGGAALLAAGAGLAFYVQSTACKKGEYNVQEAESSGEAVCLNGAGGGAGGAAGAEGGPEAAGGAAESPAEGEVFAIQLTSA
UniProt P38646: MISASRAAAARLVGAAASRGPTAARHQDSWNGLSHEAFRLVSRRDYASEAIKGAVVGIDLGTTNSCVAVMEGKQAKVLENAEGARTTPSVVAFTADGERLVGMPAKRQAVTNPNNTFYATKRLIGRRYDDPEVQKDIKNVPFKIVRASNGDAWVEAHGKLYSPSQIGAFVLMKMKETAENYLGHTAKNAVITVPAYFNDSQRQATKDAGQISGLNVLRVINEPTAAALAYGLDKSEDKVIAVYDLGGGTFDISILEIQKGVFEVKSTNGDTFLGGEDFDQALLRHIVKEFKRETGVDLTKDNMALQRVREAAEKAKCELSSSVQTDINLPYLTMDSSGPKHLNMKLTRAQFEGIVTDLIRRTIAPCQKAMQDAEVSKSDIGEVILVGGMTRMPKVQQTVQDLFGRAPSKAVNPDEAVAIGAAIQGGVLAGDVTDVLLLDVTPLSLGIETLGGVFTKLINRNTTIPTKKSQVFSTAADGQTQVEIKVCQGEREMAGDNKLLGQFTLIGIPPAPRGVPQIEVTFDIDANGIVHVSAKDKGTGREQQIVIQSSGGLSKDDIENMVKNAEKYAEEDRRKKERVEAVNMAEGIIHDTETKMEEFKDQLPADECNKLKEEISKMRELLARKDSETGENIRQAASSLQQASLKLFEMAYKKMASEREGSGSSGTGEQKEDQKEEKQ
UniProt Q8IY31, whole entry, looked up: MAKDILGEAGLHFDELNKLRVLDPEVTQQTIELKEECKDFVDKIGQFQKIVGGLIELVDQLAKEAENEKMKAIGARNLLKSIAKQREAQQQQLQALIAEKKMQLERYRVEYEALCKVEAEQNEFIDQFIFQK
UniProt Q9NRR6: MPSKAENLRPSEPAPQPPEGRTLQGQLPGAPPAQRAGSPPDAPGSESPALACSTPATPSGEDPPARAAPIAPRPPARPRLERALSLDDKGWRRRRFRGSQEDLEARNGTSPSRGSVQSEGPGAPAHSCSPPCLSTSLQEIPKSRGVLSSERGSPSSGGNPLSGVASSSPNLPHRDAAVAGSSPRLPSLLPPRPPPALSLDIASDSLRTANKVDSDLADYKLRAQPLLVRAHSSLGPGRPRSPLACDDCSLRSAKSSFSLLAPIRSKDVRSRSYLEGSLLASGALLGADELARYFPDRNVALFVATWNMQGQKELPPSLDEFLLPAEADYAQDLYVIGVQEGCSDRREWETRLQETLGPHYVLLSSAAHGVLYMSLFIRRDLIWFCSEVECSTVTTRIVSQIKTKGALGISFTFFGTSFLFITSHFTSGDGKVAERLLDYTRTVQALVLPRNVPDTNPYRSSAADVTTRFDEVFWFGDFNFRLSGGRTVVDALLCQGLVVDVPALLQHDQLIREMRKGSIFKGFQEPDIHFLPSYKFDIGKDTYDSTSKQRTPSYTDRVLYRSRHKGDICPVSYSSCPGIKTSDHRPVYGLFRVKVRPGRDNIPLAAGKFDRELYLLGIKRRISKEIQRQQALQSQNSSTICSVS
UniProt P01860, whole entry, looked up: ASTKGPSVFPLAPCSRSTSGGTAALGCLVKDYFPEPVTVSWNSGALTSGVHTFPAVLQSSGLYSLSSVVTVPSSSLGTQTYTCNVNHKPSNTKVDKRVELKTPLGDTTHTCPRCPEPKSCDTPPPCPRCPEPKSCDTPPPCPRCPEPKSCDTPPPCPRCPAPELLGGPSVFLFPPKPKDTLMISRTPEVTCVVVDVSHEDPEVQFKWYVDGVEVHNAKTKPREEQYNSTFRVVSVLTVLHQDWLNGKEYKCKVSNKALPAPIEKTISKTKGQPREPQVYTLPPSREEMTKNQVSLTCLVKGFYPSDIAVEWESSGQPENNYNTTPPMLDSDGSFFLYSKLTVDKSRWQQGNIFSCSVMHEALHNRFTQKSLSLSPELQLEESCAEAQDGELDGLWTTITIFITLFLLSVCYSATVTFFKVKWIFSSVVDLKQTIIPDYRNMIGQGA
UniProt Q12906, whole entry, looked up: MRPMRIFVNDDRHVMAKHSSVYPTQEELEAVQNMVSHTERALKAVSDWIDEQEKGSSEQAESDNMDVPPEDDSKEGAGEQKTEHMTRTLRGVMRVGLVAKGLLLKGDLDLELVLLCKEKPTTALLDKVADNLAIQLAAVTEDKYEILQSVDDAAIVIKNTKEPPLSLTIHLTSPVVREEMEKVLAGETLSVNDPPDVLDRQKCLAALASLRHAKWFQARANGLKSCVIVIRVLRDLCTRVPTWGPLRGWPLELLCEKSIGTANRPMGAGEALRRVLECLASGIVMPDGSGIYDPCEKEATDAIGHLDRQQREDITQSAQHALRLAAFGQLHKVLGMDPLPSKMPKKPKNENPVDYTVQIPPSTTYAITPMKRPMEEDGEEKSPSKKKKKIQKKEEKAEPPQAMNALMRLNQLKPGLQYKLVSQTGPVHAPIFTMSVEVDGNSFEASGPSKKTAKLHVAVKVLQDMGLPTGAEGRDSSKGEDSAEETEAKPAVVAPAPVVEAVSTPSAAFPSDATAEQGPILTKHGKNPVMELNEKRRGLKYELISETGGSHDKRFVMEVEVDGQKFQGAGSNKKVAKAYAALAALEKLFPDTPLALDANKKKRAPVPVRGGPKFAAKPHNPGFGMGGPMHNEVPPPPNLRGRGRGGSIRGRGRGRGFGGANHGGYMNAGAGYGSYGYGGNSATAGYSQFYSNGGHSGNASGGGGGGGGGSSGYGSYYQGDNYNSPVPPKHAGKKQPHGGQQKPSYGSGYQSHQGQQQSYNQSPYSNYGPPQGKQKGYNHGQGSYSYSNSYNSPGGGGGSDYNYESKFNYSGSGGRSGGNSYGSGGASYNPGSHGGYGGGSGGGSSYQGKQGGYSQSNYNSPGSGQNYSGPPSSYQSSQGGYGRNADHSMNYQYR
UniProt P50213: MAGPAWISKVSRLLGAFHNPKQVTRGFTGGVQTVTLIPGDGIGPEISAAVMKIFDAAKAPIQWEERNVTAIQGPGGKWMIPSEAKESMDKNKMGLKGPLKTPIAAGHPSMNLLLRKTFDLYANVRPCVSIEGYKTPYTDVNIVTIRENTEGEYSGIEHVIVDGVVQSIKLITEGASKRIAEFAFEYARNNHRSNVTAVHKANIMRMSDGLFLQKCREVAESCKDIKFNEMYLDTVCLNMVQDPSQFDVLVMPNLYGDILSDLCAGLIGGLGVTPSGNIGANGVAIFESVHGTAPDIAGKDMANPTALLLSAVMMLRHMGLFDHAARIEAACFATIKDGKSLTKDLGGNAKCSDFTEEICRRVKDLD
UniProt Q6UWB1, whole entry, looked up: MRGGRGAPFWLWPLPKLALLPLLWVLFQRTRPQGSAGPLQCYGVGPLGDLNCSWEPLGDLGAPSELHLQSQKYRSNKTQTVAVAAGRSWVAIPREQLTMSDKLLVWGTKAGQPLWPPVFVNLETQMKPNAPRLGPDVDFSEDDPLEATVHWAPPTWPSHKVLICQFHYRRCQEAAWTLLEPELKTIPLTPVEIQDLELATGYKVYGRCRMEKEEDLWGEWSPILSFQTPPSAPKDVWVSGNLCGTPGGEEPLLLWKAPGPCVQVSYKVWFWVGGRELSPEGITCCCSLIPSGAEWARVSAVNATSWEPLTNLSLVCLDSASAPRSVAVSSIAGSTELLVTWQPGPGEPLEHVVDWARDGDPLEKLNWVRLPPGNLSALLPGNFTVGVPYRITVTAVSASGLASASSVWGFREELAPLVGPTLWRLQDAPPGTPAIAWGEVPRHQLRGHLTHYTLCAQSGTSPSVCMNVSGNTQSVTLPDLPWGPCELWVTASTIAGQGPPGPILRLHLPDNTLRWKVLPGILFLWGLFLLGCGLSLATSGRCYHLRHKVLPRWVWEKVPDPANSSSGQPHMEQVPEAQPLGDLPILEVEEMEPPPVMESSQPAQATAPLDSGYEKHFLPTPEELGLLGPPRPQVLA
UniProt Q96D96: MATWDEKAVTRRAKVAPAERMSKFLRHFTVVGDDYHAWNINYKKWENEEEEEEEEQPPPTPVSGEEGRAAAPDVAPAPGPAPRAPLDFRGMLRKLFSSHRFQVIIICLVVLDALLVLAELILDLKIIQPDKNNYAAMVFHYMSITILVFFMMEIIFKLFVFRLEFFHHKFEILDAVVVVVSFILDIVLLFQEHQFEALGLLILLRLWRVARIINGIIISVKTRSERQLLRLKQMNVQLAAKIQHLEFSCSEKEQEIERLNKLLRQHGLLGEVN
UniProt P22692: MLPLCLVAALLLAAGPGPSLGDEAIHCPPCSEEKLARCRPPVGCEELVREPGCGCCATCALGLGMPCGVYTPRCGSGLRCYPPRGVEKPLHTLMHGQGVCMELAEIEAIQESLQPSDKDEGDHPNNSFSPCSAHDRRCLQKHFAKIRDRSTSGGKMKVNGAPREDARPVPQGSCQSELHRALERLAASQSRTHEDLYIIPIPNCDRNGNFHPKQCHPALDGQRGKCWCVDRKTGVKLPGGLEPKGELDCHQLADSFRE
UniProt Q8NBZ0, whole entry, looked up: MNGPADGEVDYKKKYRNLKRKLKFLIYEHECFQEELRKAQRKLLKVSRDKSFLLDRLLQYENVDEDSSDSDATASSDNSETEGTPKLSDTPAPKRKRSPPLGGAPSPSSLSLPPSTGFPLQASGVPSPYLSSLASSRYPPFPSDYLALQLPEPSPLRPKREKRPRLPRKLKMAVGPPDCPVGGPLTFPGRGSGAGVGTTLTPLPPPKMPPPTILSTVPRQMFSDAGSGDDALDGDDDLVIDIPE

Tests used:
Test in all cases: log2 fold change, soluble protein after heating vs DMSO (PISA); higher = thermal stabilisation; K562 lysate, 10 uM; active = over 0.2 and 3.5 SD of the protein, either way, in both replicates (recomputed)
alvocidib = compound: CN1CC[C@H](c2c(O)cc(O)c3c(=O)cc(-c4ccccc4Cl)oc23)[C@H](O)C1 [alvocidib]
In short: (§1)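 The values are log-two fold changes in thermal stability compared with solvent controls and come from duplicates. They were obtained by TMTpro 16plex LC-MS/MS, with channel sums equalised, on the supernatant after 21,000xg for 90 min. That supernatant came from crude K562 extract at 1 mg/mL protein treated with 10 μM compound for 30 min, heated for 3 min across 48°C-58°C, pooled and brought to 0.5% NP-40 at 4°C.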

Tubastatin A = compound: CN1CCc2c(c3ccccc3n2Cc2ccc(C(=O)NO)cc2)C1 [Tubastatin A]
In short: as §1

[1] = compound: CNC(=O)C1=CC=CC=C1NC2=NC(=NC=C2Cl)NC3=C(C=C(C=C3)N4CCOCC4)OC
In short: as §1

defactinib = compound: CNC(=O)c1ccc(Nc2ncc(C(F)(F)F)c(NCc3nccnc3N(C)S(C)(=O)=O)n2)cc1 [defactinib]
In short: as §1

[2] = compound: CNc1nc(-c2ccc3c(N)n[nH]c3c2)cc(N2C[C@@H](C(=O)NC3CCCCC3)CC[C@H]2C)n1
In short: as §1

encorafenib = compound: COC(=O)N[C@@H](C)CNc1nccc(-c2cn(C(C)C)nc2-c2cc(Cl)cc(NS(C)(=O)=O)c2F)n1 [encorafenib]
In short: as §1

[3] = compound: COC(=O)[C@H](CCSC)NC(=O)C1=C(C=C(C=C1)NC[C@H](CS)N)C2=CC=CC=C2
In short: as §1

alisertib = compound: COc1cc(Nc2ncc3c(n2)-c2ccc(Cl)cc2C(c2c(F)cccc2OC)=NC3)ccc1C(=O)O [alisertib]
In short: as §1

[4] = compound: COc1cc2nc(-c3cc(F)ccc3O)nc(N[C@@H]3CNC[C@H]3C(C)(C)O)c2cc1OC
In short: as §1

gefitinib = compound: COc1cc2ncnc(Nc3ccc(F)c(Cl)c3)c2cc1OCCCN1CCOCC1 [gefitinib]
In short: as §1

Measured: log2 fold change

HUS1 (UniProt O60921)
inactive: alvocidib -0.018 | Tubastatin A 0.039 | [1] 0.079 | defactinib -0.027 | [2] 0.007 | encorafenib 0.011 | [3] 0.059 | alisertib -0.023 | [4] 0.029 | gefitinib 0.036

ILRUN (UniProt Q9H6K1)
inactive: alvocidib 0.031 | Tubastatin A -0.059 | [1] 0.047 | defactinib -0.01 | [2] -0.004 | encorafenib 0.052 | [3] -0.03 | alisertib 0.123 | [4] 0.056 | gefitinib 0.115

IDH2 (UniProt P48735)
inactive: alvocidib 0.007 | Tubastatin A -0.047 | [1] -0.003 | defactinib 0.035 | [2] 0.02 | encorafenib -0.01 | [3] 0.162 | alisertib 0.018 | [4] 0.012 | gefitinib -0.013

IFI30 (UniProt P13284)
inactive: alvocidib -0.002 | Tubastatin A -0.023 | [1] 0.01 | defactinib -0.036 | [2] 0.024 | encorafenib 0.016 | [3] -0.021 | alisertib -0.068 | [4] 0.018 | gefitinib 0.052

IGLL5 (UniProt B9A064)
inactive: alvocidib 0 | Tubastatin A 1.23 | [1] 0.153 | defactinib -0.043 | encorafenib -0.099 | [3] -0.005 | [4] 0.053

IGF2R (UniProt P11717)
inactive: alvocidib -0.053 | Tubastatin A 0.01 | [1] -0.001 | defactinib 0.004 | [2] -0.029 | encorafenib 0.03 | [3] -0.062 | alisertib -0.008 | [4] 0.01 | gefitinib 0.039

IGHA1 (UniProt P01876)
inactive: alvocidib -0.027 | Tubastatin A 1.41 | [1] 0.285 | defactinib 0.562 | [2] -0.38 | encorafenib -0.28 | [3] 0.49 | alisertib -0.018 | gefitinib -0.015

ICAM5 (UniProt Q9UMF0)
inactive: alvocidib -0.057 | Tubastatin A -0.046 | [1] 0.038 | defactinib 0.076 | [2] -0.095 | encorafenib -0.035 | [3] -0.024 | alisertib -0.059 | [4] -0.003 | gefitinib -0.014

IL18 (UniProt Q14116)
inactive: alvocidib -0.011 | Tubastatin A 0.018 | [1] -0.043 | defactinib -0.044 | [2] -0.028 | encorafenib -0.1 | [3] -0.066 | alisertib -0.058 | [4] 0.035 | gefitinib 0.043

ILKAP (UniProt Q9H0C8)
inactive: alvocidib 0.056 | Tubastatin A -0.067 | [1] 0 | defactinib 0.03 | [2] -0.028 | encorafenib -0.002 | [3] 0.017 | alisertib 0.067 | [4] -0.006 | gefitinib 0.005

HSPA9 (UniProt P38646)
inactive: alvocidib 0.003 | Tubastatin A 0.033 | [1] -0.043 | defactinib -0.001 | [2] -0.042 | encorafenib -0.036 | [3] -0.039 | alisertib 0.014 | [4] -0.014 | gefitinib 0.003

IFT20 isoform 2 (UniProt Q8IY31)
inactive: alvocidib -0.047 | Tubastatin A 0.035 | [1] 0.094 | defactinib 0.123 | [2] 0.007 | encorafenib 0.081 | [3] -0.239 | alisertib 0.019 | [4] 0.005 | gefitinib -0.219

IFT74 (UniProt Q96LB3)
inactive: alvocidib -0.047 | Tubastatin A 0.063 | [1] -0.024 | defactinib -0.017 | [2] 0.208 | encorafenib 0.035 | [3] 0.03 | alisertib 0.03 | [4] 0.13 | gefitinib -0.071

HSPH1 (UniProt Q5TBM3)
inactive: alvocidib -0.111 | Tubastatin A 0.184 | [4] -0.011

IGLC3 (UniProt P0DOY3)
inactive: alvocidib -0.051 | [1] 0.23 | [2] -1.76 | alisertib 0 | gefitinib -0.027

HTD2 (UniProt P86397)
inactive: alvocidib 0.004 | Tubastatin A -0.079 | defactinib 0.069 | encorafenib 0.178 | [3] -0.302 | alisertib -0.035 | [4] 0.079 | gefitinib 0.053

HTRA3 (UniProt P83110)
inactive: alvocidib -0.761 | alisertib 0.127 | gefitinib 0.133

IMPDH2 (UniProt H0Y4R1)
inactive: alvocidib -0.12 | defactinib 0.101 | [2] 0.014 | encorafenib -0.014 | alisertib -0.038 | [4] -0.035 | gefitinib 0.052
active: Tubastatin A -0.554 | [3] -0.505

HUWE1, A0A087X1S3
inactive: alvocidib -0.15 | Tubastatin A -0.117 | [2] -0.164 | encorafenib 0.062 | [3] -0.054 | [4] 0.061

INPP5E (UniProt Q9NRR6)
inactive: alvocidib -0.102 | [1] 0.038 | alisertib -0.087 | gefitinib 0.035

IGHG3 (UniProt P01860)
inactive: alvocidib 0.03 | Tubastatin A 0.625 | alisertib -0.074 | [4] 0.009 | gefitinib 0.388

IGKV3-20 (UniProt P01619)
inactive: alvocidib 0.106 | [2] 0.297

ILF3 (UniProt Q12906)
inactive: alvocidib 0.045 | [1] 0.075 | defactinib 0.059 | [2] -0.047 | encorafenib 0.08 | [3] -0.027 | [4] -0.04

IDH3A isoform 2 (UniProt P50213)
inactive: alvocidib -0.078 | defactinib -0.034 | [2] 0.116 | encorafenib -0.031 | [3] 0.054 | [4] -0.02

IL27RA (UniProt Q6UWB1)
inactive: alvocidib -0.058 | Tubastatin A -0.023 | [1] 0.128 | [2] -0.086 | encorafenib 0.03 | [3] 0.006 | alisertib -0.109 | [4] 0.069 | gefitinib 0.062

IFT46 isoform 2 (UniProt Q9NQC8)
inactive: alvocidib -0.046 | defactinib -0.031 | encorafenib 0.058 | [3] -0.215 | alisertib -0.117 | [4] 0.334 | gefitinib 0

IFNAR1 (UniProt P17181)
inactive: alvocidib 0.153 | [2] 0.009

HVCN1 (UniProt Q96D96)
inactive: alvocidib -0.13 | [1] -0.058 | encorafenib 0.262 | [3] -0.164 | [4] 0.339

IGFBP4 (UniProt P22692)
inactive: alvocidib -0.149 | Tubastatin A -0.083 | [1] 0.045 | [2] -0.084 | alisertib -0.005 | gefitinib 0.005
active: [4] 0.454

INO80E (UniProt Q8NBZ0)
inactive: alvocidib -0.073 | Tubastatin A 0.085 | [1] 0.146 | [2] -0.009 | encorafenib 0.044 | [3] -0.261 | alisertib -0.135 | [4] -0.021 | gefitinib 0.005

IFIH1 (UniProt Q9BYX4)
inactive: alvocidib 0.004 | encorafenib 0.135 | [3] 0.101 | [4] 0.135
